The match of structure and compound is tentative.
Target: UBA3 variant with A171T mutation (NAE) (Homo sapiens, UniProt Q8TBC4, A171T)
Assay: NAE HTRF assay, IC50 at KM for ATP (120 μM)
Details: ratio of IC50 A171T mutant to IC50 wild type

Protein sequences, listed by entry. Tags and fused reporters are not part of them. Residues count along the entry.
UniProt Q8TBC4, whole entry A171T: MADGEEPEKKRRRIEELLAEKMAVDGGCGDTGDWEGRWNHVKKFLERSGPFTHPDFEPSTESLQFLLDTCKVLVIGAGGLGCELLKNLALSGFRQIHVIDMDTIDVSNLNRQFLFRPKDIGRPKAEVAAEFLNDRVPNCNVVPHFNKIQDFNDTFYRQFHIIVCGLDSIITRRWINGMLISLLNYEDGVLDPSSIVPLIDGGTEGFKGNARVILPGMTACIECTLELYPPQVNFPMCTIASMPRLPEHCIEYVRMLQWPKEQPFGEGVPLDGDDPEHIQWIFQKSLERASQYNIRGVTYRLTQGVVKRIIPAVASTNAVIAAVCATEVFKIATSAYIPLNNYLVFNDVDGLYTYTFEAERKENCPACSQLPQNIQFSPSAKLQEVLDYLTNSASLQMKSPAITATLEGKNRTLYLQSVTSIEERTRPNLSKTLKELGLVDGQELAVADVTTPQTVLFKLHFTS
UniProt Q15843, 1-76 partner limits assumed: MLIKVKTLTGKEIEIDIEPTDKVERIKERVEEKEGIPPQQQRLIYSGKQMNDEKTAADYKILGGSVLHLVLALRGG
UniProt Q13564, whole entry partner: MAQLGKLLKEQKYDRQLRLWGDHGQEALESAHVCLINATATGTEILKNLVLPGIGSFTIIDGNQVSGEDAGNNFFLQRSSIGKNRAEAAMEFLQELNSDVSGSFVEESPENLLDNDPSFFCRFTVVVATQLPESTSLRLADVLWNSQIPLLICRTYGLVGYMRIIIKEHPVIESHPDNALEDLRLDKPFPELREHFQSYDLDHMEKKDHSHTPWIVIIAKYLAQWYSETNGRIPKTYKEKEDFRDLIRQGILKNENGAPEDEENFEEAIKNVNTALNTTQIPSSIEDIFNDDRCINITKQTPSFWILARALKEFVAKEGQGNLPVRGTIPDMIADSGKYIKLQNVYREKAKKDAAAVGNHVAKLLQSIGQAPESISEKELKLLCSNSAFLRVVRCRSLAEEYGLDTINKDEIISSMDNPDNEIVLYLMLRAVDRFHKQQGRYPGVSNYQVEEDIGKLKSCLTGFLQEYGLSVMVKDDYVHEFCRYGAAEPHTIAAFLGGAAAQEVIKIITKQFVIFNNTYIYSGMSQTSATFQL

A171T/WT: 3
Structure (SMILES): NS(=O)(=O)OC[C@H]1O[C@@H](n2cnc3c(N[C@@H]4c5ccccc5C[C@@H]4O)ncnc32)[C@H](O)[C@@H]1O
